From PMC3709506
No constants are given. Whether binding was seen depends on the method and setting. Binding can be weak; no strength is given.

Chains of the proteins cited; added tags and fusions are not shown. Lines headed by an entry give the natural chain unless they say otherwise; changes in a name come on top.
UniProt P06453: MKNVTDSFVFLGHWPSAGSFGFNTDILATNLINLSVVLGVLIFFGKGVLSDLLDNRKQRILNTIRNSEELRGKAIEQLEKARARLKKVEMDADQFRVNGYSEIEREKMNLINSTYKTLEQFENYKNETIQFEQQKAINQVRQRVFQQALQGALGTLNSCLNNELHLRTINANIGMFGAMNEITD

Target: T1, cATPase subunit II, dephosphorylated enzyme (Spinacia oleracea) (UniProt P31853)
T1 sequence: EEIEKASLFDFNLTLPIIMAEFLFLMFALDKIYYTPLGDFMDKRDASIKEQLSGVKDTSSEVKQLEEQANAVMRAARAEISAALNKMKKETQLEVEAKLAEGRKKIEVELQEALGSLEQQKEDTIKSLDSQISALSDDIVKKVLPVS
Assay: cross-linking; comparative: dephosphorylated cATPase (calf intestinal alkaline phosphatase, 37 °C) cross-linked with 2.5 mM deuterated BS3, untreated cATPase with non-deuterated BS3, pooled; areas of extracted ion chromatograms of heavy and light cross-links compared; both purified

chloroplast ATP synthase (cATPase) subunit I (from UniProt P06453)
binding: binds
